Laboratory results reported in US12076312B2, “Repurposing anti-androgen therapy for COVID-19 and immunotherapy” (Wisconsin Alumni Research Foundation, priority 2021, dated 2024).

How the values were obtained:
Test in all cases: cells
[1] = system: NCI-H460; conditions: Homo sapiens, NCI-H460, 72 h
[2] = system: NCI-H3122; conditions: Homo sapiens, NCI-H3122, 72 h
[3] = system: NCI-H1975; conditions: Homo sapiens, NCI-H1975, 72 h
[4] = system: NCI-H226; conditions: Homo sapiens, NCI-H226, 72 h
[5] = system: NCI-H1299; conditions: Homo sapiens, NCI-H1299, 72 h
[6] = system: NCI-H1650; conditions: Homo sapiens, NCI-H1650, 72 h
[7] = system: NCI-H358; conditions: Homo sapiens, NCI-H358, 72 h
[8] = system: NCI-H222B; conditions: Hec50, 72 h
[9] = system: NCI-H520; conditions: Homo sapiens, NCI-H520, 72 h

CNC(=O)c1ccc(N2C(=S)N(c3ccc(C#N)c(C(F)(F)F)c3)C(=O)C2(C)C)cc1F [enzalutamide]
EC50 [1]: 68.7 µM
EC50 [2]: 17.3 µM
EC50 [3]: 69.5 µM
EC50 [4]: 60.4 µM
EC50 [5]: 34.2 µM
EC50 [6]: 67.1 µM
EC50 [7]: 66.9 µM
EC50 [8]: 68 µM
EC50 [9]: 90 µM
